Measured values: patent US20120244563A1
No constants are given. Whether binding was seen depends on the method and setting. Some entries that bind do so weakly or less than the wild type.

Chains of the proteins cited; added tags and fusions are not shown. Residues count along the entry.
UniProt P00738, residues 19-406: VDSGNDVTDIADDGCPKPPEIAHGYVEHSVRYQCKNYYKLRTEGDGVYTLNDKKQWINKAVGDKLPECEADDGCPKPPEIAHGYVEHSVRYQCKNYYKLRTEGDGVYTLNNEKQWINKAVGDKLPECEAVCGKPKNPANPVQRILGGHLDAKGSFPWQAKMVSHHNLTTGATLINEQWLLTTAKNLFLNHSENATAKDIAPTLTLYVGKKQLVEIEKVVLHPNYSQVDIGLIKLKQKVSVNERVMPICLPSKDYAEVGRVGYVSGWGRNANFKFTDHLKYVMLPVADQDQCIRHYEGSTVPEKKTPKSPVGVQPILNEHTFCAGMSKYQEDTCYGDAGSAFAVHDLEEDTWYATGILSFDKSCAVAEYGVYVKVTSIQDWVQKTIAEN

Experiments:
[1] = molecular target: Haptoglobin extracted from the culture supernatant of a pancreatic cancer cell line (PSN-1) (UniProt P00738); test: ELISA of Example 1; haptoglobin coated at 10 ng/mL, biotin-labeled AAL (FIG. 7)
[2] = molecular target: Haptoglobin extracted from serum of pancreatic cancer patients (human) (UniProt P00738); test: ELISA of Example 2; haptoglobin extracted from serum coated on the plate, biotin-labeled AAL (FIG. 9)

binding [1]: binds
binding [2]: binds
B1: Aleuria aurantia lectin (protein, UniProt P18891 2-313, looked up)
chain: PTEFLYTSKIAAISWAATGGRQQRVYFQDLNGKIREAQRGGDNPWTGGSSQNVIGEAKLFSPLAAVTWKSAQGIQIRVYCVNKDNILSEFVYDGSKWITGQLGSVGVKVGSNSKLAALQWGGSESAPPNIRVYYQKSNGSGSSIHEYVWSGKWTAGASFGSTVPGTGIGATAIGPGRLRIYYQATDNKIREHCWDSNSWYVGGFSASASAGVSIAAISWGSTPNIRVYWQKGREELYEAAYGGSWNTPGQIKDASRPTPSLPDTFIAANSSGNIDISVFFQASGVSLQQWQWISGKGWSIGAVVPTGTPAGW
modifications: biotin label (site not stated)
